Amino acid sequences for entries named in this document (tags omitted). A change or cut given only in a name is not applied to a line headed by its entry.
UniProt P32114: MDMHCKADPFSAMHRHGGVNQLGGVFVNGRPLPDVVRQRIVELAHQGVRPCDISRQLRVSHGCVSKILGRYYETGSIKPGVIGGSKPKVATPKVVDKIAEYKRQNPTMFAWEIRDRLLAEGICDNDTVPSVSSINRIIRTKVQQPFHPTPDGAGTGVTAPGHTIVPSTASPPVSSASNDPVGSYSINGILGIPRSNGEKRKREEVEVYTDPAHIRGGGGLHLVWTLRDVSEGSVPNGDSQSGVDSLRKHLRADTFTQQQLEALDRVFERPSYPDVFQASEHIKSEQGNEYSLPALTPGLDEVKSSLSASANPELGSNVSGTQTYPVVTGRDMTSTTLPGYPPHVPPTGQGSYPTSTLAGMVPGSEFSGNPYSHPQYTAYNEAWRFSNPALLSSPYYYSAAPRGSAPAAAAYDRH
UniProt P48432: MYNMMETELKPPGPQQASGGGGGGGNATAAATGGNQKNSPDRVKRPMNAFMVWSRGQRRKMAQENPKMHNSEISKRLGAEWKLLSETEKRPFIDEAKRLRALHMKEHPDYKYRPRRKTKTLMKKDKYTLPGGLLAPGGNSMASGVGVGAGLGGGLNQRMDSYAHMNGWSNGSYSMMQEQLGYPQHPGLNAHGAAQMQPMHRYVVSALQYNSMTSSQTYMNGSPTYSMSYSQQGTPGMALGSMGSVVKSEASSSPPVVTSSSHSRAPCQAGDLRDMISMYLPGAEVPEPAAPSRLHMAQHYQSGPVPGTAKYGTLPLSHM

In patent publication US20170042842:

What was measured:
Pax2 [1] = target: Pax2 (UniProt P32114); assay: binding assay; conditions: ChIP-PCR in OC-1 and HEK cells; IgG control negative; 4x-site construct also precipitated; reduced by Pax2 or Sox2 siRNA; protein in cells; protein details: transfected cDNA in OC-1/HEK/IEC6 cells
Sox2 [2] = target: Sox2 (UniProt P48432); assay: binding assay; conditions: ChIP-PCR in OC-1 and HEK cells; control serum negative; 4x-site construct also precipitated; protein in cells; protein details: transfected cDNA in OC-1/HEK/IEC6 cells
[3] = tested on: Pax2 + Sox2 (co-expressed); assay: activity in cells; conditions: protein in cells, protein details: co-transfected cDNAs, only the site is given
Pax2 [4] = target: Pax2 (UniProt P32114); assay: activity in cells; conditions: Pax2 alone gives no activation of the reporter; protein in cells; protein details: transfected cDNA in OC-1/HEK/IEC6 cells; only the site is given
Sox2 [5] = target: Sox2 (UniProt P48432); assay: activity in cells; conditions: Sox2 alone gives no activation of the reporter; protein in cells; protein details: transfected cDNA in OC-1/HEK/IEC6 cells; only the site is given

Row | Sequence | binding result (Pax2 [1]) | binding result (Sox2 [2]) | activity on this sequence ([3]; 4x-site luciferase reporter in IEC6, activation doubled by co-transfection, 1 ng each) | activity on this sequence ([3]; luciferase reporter, reduced activity, still activated by Pax2 and Sox2 together) | activity on this sequence (Pax2 [4]) | activity on this sequence (Sox2 [5]) | activity on this sequence ([3]; luciferase reporter, not activated by Pax2 and Sox2 together)
1 | CCAAACAAACAAAGAGTCAGCACTTCTTAAAGTAA (double strand) | binds | binds | active | – | – | – | –
2 | CCAAACAAACAAATGACTGACGAGTCAGCACTTCTTAAAGTAA (double strand) [Mutation 1 (8 bases added between Sox2 and Pax2 sites)] | – | – | – | less active | not active | not active | –
3 | CCAAGTAAAGTAAAGCTTAGGCACTTCTTAAAGTAA (double strand) [Mutation 2 (both Sox2 and Pax2 sites mutated)] | – | – | – | – | not active | not active | not active

Construct, isoform or probe ends are uncertain for at least one entry. For part of these data: Negatives hold for the conditions tested. For part of these data: Weaker means in comparison with the reference protein, sequence or condition of that experiment. For part of these data: Results from cells or extracts need not show a direct contact.
